From patent publication EP2680005A1, “Lipid analysis” (Rheinische Friedrich-Wilhelms-Universität Bonn, priority 2012, dated 2014)

Assay: Sensitivity and linearity of click detection (TLC, fluorescence imaging)

Alkyne-oleoyl-cholesterol [cholesterol ester of alkyne-oleate]
slope of response curve in a double logarithmic plot (concentration range 13.5 nM to 40 µM): 0.91 | lower detection level (concentration) (reaction volume 30 µl): 13.5 nM | lower detection level (total substance) (reaction volume 30 µl): 0.4 pmol
